Reference: patent US20140221460A1, “METHOD FOR IDENTIFYING MODULATORS OF HCV TRANSLATION OR REPLICATION INVOLVING THE NS5B POLYPEPTIDE AND A PSEUDOKNOT” (priority 2011, published 2014)
Some entries share one result that the patent states for a list of compounds.

System: genotype 2a JFH-1 hepatitis C virus
Test: Virus production / virus replication assay (HCVcc, NS5A immunofocal staining)
Type: cell-based
Conditions: JFH-1 in Huh-7.5 cells, increasing amounts of oligonucleotide, compared to untreated cells, FIG. 9
Method: This assay uses the HCVcc system that measures the production of infectious genotype 2a JFH-1 hepatitis C virus as described previously (Wakita et al., 2005). In this assay oligonucleotides directed against RNA sequences or structures are transfected into Huh-7.5 cells and a known amount of virus added 4 hours later. After 24 hours incubation the cell sheet is fixed and virus replication quantified by immunofocal staining for virus antigen (in this instance the NS5A protein). Infected cells are counted using a fluorescence microscope.

Substance: 5′-ACGCTGTGAAAAATGTC-3′ [JFH-1 anti-SL9266 LNA oligonucleotide]
- inhibition of virus replication: 60-80%
